Results are given in words; binding and its absence hold for the method and conditions named. Some entries that bind do so weakly or less than the wild type. Tags and fused reporters may be left off the sequences shown.
Biological target: T1, LEC1 (LEAFY COTYLEDON1), yeast two-hybrid fusion in pGBKT7 (Arabidopsis) (UniProt Q9SFD8)
T1 sequence: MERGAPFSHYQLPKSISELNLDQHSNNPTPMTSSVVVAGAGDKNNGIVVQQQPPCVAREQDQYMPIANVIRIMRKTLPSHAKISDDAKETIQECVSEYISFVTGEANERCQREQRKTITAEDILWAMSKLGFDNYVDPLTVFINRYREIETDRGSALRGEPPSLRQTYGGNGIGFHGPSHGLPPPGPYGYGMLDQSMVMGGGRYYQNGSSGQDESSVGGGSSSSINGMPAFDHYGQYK
Experiment: two-hybrid; yeast AH109; LEC1 in pGBKT7 (bait), TCL2 in pGADT7 (prey); growth on SD/-Trp/-Leu/-His/-Ade medium

- binding: binds
B1: TCL2, yeast two-hybrid fusion in pGADT7 (protein, UniProt B3H4X8 1-100)
chain: MDNTNRLRHLRSRKQSKFTLGDTAEVNSVKWEFINMTEQEEDLIFRMHRLVGDRWDLIAGRVVGREAKDIERYWIMRNCDHCSHKRRRVHKFYRFSISPP

Reference: PMC4630568, “Arabidopsis LEAFY COTYLEDON1 controls cell fate determination during post-embryonic development” (Frontiers in Plant Science, 2015)
